Among the data in the supplement of paper PMC6411743 are NP40-soluble protein abundance values, retold here.

Sequences of proteins named here, by UniProt entry; tags and fusion partners are left off. A change or cut given only in a name is not applied to a line headed by its entry.
UniProt Q13526, whole entry: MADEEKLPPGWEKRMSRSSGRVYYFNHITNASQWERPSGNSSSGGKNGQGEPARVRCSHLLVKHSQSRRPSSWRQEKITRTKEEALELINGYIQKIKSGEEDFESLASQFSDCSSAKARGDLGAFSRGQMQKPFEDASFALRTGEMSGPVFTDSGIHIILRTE
UniProt Q13105: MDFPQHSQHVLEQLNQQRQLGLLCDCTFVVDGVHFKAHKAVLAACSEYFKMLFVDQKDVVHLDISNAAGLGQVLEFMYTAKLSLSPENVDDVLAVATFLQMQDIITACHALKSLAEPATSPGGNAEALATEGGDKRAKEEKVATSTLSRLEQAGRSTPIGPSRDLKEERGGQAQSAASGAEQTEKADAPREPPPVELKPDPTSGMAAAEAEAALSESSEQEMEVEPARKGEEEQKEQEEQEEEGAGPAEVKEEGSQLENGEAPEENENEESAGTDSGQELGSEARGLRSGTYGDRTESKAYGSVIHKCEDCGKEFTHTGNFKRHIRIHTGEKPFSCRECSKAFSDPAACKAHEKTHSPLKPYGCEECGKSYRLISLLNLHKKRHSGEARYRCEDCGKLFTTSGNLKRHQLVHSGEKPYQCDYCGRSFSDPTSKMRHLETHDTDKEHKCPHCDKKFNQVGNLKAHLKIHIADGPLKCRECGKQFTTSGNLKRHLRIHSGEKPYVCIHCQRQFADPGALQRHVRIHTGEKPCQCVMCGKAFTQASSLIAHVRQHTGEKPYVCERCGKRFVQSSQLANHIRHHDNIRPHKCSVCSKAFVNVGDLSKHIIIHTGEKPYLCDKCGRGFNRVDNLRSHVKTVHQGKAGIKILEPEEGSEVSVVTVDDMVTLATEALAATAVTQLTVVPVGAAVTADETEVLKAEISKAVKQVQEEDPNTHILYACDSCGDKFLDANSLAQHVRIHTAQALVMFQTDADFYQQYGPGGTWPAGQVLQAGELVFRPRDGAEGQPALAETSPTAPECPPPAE
UniProt Q13107: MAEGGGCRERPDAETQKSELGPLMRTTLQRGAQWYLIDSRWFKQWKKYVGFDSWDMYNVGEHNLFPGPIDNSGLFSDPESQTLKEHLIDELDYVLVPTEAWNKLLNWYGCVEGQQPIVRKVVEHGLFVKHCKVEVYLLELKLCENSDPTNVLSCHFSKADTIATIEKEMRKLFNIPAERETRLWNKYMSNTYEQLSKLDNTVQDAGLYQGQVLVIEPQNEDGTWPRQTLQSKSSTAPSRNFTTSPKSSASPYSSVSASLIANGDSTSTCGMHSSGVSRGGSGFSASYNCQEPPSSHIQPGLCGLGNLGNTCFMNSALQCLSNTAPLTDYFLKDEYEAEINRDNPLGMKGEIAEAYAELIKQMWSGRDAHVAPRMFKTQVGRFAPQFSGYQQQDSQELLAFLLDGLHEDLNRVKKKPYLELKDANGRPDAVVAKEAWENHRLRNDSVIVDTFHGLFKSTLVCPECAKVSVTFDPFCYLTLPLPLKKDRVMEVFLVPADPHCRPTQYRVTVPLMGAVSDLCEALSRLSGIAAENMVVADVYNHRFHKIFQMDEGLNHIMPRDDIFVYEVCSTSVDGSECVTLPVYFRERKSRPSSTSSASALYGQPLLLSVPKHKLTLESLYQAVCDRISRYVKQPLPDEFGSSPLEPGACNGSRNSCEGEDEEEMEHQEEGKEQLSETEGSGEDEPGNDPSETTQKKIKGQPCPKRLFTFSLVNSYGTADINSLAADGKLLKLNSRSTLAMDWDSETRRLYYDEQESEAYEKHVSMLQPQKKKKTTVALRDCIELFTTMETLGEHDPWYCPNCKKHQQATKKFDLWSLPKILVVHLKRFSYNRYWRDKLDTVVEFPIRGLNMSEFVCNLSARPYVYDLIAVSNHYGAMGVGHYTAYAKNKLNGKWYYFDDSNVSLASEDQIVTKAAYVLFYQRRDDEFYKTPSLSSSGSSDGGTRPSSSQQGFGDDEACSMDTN
UniProt Q13131: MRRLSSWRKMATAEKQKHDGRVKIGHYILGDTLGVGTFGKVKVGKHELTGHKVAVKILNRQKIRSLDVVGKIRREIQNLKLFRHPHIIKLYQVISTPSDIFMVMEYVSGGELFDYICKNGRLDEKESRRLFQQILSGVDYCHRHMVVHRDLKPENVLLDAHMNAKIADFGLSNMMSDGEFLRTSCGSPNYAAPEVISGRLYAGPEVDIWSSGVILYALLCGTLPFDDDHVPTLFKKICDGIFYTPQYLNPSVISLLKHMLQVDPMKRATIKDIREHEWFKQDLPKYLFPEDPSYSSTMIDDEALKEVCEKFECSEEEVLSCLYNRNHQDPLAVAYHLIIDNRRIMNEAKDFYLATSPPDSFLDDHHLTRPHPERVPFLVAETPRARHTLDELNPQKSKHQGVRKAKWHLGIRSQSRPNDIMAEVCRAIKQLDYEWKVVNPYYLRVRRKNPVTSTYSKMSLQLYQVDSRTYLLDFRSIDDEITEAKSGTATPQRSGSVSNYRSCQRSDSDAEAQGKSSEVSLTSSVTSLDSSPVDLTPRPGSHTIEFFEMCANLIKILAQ
UniProt Q06323: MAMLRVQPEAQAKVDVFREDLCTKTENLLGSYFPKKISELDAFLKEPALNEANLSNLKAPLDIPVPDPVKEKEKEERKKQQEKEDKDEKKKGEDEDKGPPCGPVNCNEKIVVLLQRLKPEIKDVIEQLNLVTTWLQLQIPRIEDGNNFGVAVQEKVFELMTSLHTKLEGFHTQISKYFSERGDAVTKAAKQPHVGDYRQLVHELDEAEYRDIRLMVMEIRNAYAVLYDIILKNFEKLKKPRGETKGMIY
UniProt Q04837: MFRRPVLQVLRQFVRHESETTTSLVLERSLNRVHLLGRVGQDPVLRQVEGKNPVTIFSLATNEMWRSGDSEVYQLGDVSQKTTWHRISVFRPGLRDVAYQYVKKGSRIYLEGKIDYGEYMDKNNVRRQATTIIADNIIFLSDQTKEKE
UniProt Q13367: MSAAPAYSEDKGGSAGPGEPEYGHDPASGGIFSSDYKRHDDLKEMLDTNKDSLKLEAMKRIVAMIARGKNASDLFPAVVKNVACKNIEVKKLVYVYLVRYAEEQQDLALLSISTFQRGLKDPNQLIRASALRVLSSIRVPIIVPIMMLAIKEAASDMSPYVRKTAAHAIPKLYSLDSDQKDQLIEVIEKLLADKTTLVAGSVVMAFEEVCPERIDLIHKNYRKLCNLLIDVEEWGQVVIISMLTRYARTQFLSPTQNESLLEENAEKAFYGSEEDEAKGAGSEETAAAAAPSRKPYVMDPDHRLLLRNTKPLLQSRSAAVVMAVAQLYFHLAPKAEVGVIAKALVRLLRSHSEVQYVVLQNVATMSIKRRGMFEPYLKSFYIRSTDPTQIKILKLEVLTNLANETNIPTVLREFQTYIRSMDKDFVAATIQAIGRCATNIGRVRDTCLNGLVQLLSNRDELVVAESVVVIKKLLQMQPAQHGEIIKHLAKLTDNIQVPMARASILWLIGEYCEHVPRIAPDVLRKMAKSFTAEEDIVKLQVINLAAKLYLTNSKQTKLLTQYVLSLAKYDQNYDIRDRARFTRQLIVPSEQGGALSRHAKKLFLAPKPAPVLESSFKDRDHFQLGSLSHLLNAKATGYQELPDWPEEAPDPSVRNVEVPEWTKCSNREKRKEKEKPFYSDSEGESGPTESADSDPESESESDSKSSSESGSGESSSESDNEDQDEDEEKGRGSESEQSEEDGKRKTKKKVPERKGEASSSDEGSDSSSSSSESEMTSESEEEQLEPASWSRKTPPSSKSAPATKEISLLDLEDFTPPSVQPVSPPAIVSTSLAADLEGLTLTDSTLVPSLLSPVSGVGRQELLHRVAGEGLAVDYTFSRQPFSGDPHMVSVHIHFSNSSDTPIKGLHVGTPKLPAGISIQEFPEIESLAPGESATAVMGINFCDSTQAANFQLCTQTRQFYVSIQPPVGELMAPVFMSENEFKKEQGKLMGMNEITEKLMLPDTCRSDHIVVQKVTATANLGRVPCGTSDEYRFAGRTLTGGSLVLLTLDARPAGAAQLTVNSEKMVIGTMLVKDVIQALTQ
UniProt Q10567: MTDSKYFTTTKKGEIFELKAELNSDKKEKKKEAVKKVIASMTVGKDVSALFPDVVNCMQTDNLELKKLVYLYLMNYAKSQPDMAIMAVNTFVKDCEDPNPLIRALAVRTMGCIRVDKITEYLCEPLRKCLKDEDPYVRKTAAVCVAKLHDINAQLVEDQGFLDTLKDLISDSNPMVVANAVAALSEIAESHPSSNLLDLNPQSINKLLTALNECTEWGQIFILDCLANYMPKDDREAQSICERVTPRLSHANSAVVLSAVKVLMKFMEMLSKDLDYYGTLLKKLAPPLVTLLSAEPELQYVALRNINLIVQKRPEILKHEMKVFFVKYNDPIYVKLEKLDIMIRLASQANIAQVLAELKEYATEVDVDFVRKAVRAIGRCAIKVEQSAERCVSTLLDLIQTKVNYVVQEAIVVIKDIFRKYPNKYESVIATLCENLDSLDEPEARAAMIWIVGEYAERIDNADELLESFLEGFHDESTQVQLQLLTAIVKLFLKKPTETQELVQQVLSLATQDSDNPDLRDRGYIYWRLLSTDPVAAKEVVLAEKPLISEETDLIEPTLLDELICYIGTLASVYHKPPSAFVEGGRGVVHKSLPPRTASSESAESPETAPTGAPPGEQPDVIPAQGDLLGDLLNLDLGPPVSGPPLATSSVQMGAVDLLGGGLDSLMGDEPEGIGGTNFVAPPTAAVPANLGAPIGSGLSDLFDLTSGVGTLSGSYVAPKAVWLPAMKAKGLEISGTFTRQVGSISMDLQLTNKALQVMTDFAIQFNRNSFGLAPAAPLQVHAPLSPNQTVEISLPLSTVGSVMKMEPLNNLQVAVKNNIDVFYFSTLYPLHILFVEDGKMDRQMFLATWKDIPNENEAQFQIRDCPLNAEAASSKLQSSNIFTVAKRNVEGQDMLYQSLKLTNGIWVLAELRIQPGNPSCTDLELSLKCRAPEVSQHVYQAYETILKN
UniProt Q08211, whole entry: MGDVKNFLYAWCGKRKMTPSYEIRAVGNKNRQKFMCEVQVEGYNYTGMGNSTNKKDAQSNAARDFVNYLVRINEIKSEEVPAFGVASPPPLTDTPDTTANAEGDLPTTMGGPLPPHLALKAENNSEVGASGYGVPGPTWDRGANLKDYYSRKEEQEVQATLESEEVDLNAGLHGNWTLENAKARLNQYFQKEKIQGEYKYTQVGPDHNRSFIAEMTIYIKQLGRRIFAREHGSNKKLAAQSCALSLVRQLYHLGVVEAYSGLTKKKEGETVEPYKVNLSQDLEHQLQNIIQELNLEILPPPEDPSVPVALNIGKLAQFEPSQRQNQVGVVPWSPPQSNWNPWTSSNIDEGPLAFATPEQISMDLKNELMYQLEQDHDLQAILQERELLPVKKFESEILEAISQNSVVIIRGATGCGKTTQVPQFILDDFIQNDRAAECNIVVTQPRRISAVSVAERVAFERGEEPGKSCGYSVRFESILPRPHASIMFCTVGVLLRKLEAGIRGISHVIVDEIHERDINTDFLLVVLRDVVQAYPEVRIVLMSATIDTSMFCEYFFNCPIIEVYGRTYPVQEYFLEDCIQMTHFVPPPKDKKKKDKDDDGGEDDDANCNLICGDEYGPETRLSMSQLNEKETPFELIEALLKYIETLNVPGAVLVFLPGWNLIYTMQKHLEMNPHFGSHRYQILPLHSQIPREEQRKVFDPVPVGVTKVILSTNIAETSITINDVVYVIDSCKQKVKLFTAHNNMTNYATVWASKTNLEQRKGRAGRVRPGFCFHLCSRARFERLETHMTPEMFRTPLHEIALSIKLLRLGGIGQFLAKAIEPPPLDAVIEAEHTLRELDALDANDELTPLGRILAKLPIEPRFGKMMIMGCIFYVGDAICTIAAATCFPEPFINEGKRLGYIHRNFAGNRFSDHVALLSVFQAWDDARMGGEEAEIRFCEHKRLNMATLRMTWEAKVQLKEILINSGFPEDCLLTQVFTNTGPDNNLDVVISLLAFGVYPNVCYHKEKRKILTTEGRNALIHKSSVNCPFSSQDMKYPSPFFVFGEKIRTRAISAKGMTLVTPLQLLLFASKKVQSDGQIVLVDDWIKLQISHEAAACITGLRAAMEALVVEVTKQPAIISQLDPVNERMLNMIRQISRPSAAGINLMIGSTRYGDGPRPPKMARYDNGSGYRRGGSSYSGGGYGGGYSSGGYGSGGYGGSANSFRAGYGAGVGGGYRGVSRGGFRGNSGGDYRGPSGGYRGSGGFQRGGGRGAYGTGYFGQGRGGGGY
UniProt Q03154: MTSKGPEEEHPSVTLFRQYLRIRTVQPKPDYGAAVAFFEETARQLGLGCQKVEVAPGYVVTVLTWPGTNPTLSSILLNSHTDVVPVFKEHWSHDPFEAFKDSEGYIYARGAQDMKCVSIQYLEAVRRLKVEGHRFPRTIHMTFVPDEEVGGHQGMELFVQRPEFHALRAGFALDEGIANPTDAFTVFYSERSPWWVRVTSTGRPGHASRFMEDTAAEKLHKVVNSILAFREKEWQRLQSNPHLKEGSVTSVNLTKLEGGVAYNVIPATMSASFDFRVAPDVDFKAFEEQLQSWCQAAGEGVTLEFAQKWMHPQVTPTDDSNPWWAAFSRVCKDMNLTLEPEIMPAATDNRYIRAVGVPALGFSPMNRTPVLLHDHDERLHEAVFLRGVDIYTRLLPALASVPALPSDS

Compound in this assay: Nc1ncnc2c1ncn2[C@@H]1O[C@H](COP(=O)(O)OP(=O)(O)OP(=O)(O)O)[C@@H](O)[C@H]1O [adenosine triphosphate]
The assay is described as follows: NP40-soluble protein abundance relative to vehicle (solubility fold change) (ratio); higher = more soluble protein in presence of ATP. A digest of the protocol: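 Data come from three independent experiments in which Dounce-homogenised Jurkat crude lysate was treated at eight concentrations from 0.1 to 10 mM. Treatment ran 10 min at room temperature and then 3 min at 37 °C, after which 0.8% NP40 and benzonase were added for 60 min at 4 °C before ultracentrifugation. The supernatant underwent TMT labelling and LC-MS/MS, and vsn-normalised intensities were expressed as fold change against the detergent-processed vehicle in each replicate.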

± gives the standard deviation of the averaged measurements. The list shows a part of the results, in another mix than the full data. Most values lie at the level of the controls, where differences are scatter.

With PIN1 (UniProt Q13526), the NP40-soluble protein abundance was determined as 0.965 ± 0.015 (concentration: 0.1mM) and 0.929 ± 0.016 (concentration: 0.5mM).

For the target UniProt Q13043, the NP40-soluble protein abundance runs as follows: (concentration: 0.1mM) 1.02 ± 0.028; (concentration: 0.5mM) 1.03 ± 0.071.

As to SNTB2 (UniProt Q13425), the NP40-soluble protein abundance is 1.05 ± 0.089 (concentration: 0.1mM) and 1 ± 0.064 (concentration: 0.5mM).

Regarding TUBB3 (UniProt Q13509), the NP40-soluble protein abundance came to 1.02 ± 0.084 (concentration: 0.1mM) and 1.01 ± 0.072 (concentration: 0.5mM).

On to DAG1 (UniProt Q14118), for which the NP40-soluble protein abundance is 0.978 ± 0.12 (concentration: 0.1mM) and 0.938 ± 0.15 (concentration: 0.5mM).

As to UniProt Q13105 and related entries, the NP40-soluble protein abundance worked out at 1.03 ± 0.083 (concentration: 0.1mM) and 1.04 ± 0.11 (concentration: 0.5mM).

Regarding USP4 (UniProt Q13107), the NP40-soluble protein abundance turned out to be 1.06 ± 0.063 (concentration: 0.1mM) and 1.02 ± 0.028 (concentration: 0.5mM).

In the case of TARDBP (UniProt Q13148), the NP40-soluble protein abundance reads like this: (concentration: 0.1mM) 0.982 ± 0.037; (concentration: 0.5mM) 1.03 ± 0.033.

Regarding UniProt Q13131 and related entries, the NP40-soluble protein abundance (concentration: 0.1mM) amounted to 1.03 ± 0.047 and the NP40-soluble protein abundance (concentration: 0.5mM) amounted to 1.04 ± 0.047.

Consider UniProt Q06124-2|Q06124, for which the NP40-soluble protein abundance is 1.07 ± 0.072 (concentration: 0.1mM) and 1.05 ± 0.086 (concentration: 0.5mM).

With UniProt Q06323 and related entries, the NP40-soluble protein abundance (concentration: 0.1mM) was determined as 0.891 ± 0.08 and the NP40-soluble protein abundance (concentration: 0.5mM) stood at 0.863 ± 0.086.

In the case of SSBP1 (UniProt Q04837), the NP40-soluble protein abundance was 0.979 ± 0.044 (concentration: 0.1mM) and 1 ± 0.021 (concentration: 0.5mM).

UniProt Q13367 and related entries: the NP40-soluble protein abundance runs as follows: (concentration: 0.1mM) 1.09 ± 0.042; (concentration: 0.5mM) 1 ± 0.099.

Consider UniProt Q10567 and related entries, for which the NP40-soluble protein abundance (concentration: 0.1mM) is 0.989 ± 0.018; the NP40-soluble protein abundance (concentration: 0.5mM) was 1.01 ± 0.051; the NP40-soluble protein abundance (concentration: 1mM) stood at 0.9721 ± 0.0088; the NP40-soluble protein abundance (concentration: 2mM) amounted to 0.973 ± 0.015; the NP40-soluble protein abundance (concentration: 4mM) came out at 0.922 ± 0.022; the NP40-soluble protein abundance (concentration: 6mM) stood at 0.964 ± 0.013. The NP40-soluble protein abundance amounted to 0.951 ± 0.0014 (concentration: 8mM) and 0.934 ± 0.024 (concentration: 10mM).

As to EIF3I (UniProt Q13347), the NP40-soluble protein abundance was 0.979 ± 0.023 (concentration: 0.1mM) and 1.01 ± 0.031 (concentration: 0.5mM).

Regarding UniProt Q12824, the NP40-soluble protein abundance came to 1.05 ± 0.032 (concentration: 0.1mM) and 1.11 ± 0.05 (concentration: 0.5mM).

Regarding DHX9 (UniProt Q08211), the NP40-soluble protein abundance came to 1.1 ± 0.036 (concentration: 0.1mM); 1.18 ± 0.046 (concentration: 0.5mM); 1.24 ± 0.071 (concentration: 1mM); 1.29 ± 0.043 (concentration: 2mM); 1.49 ± 0.03 (concentration: 4mM); 1.55 ± 0.024 (concentration: 6mM). The NP40-soluble protein abundance (concentration: 8mM) came to 1.88 ± 0.091 and the NP40-soluble protein abundance (concentration: 10mM) is 1.95 ± 0.15.

With UniProt Q12974, the NP40-soluble protein abundance (concentration: 0.1mM) is 1.01 ± 0.063 and the NP40-soluble protein abundance (concentration: 0.5mM) stood at 0.964 ± 0.041.

Regarding ACY1 (UniProt Q03154), the NP40-soluble protein abundance was determined as 1.05 ± 0.091 (concentration: 0.1mM) and 1.04 ± 0.075 (concentration: 0.5mM).

With NSUN2 (UniProt Q08J23), the NP40-soluble protein abundance turned out to be 1.03 ± 0.064 (concentration: 0.1mM) and 1.06 ± 0.041 (concentration: 0.5mM).

As for UniProt Q01082 and related entries, the NP40-soluble protein abundance came to 0.884 ± 0.042 (concentration: 0.1mM); 0.879 ± 0.062 (concentration: 0.5mM); 0.887 ± 0.029 (concentration: 1mM); 0.899 ± 0.014 (concentration: 2mM); 0.928 ± 0.03 (concentration: 4mM); 1.05 ± 0.037 (concentration: 6mM). For the same target, the NP40-soluble protein abundance reads like this: (concentration: 8mM) 1.04 ± 0.06; (concentration: 10mM) 1.07 ± 0.048.
